Publication PMC12276006, “Structural basis for sensitivity and acquired resistance of fungal cap guanine-N7 methyltransferases to the antifungal antibiotic sinefungin” (Nucleic Acids Research, 2025)
These are yes or no findings as the source states them, for the method shown.

Amino acid sequences for entries named in this document (tags omitted). A change or cut given only in a name is not applied to a line headed by its entry.
UniProt Q6CKI0: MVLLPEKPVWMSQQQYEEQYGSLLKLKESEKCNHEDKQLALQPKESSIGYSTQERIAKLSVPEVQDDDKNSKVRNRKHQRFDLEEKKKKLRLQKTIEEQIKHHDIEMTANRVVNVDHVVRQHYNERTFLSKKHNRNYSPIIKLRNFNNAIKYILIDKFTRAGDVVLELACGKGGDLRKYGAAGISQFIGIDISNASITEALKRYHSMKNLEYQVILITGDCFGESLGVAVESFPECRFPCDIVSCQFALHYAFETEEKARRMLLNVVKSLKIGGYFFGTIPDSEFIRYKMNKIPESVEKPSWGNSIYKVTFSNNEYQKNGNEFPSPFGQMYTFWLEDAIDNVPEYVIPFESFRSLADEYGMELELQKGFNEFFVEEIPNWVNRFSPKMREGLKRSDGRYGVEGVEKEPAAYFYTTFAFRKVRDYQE
UniProt P32783: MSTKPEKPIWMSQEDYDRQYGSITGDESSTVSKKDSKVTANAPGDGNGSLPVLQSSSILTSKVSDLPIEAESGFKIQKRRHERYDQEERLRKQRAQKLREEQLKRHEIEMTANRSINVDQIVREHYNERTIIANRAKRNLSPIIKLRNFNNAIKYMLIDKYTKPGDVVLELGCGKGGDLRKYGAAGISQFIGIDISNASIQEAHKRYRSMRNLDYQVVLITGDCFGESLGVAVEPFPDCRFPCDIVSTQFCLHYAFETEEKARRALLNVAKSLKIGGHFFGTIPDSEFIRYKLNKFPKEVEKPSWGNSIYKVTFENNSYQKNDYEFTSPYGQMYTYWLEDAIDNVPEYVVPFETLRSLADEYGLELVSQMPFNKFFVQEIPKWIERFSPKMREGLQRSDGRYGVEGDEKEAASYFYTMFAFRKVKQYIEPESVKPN

Legend:
Test in all cases: SEC; analytical size exclusion chromatography, Superdex S200 (10/300), 20 mM HEPES pH 7.5, 150 mM NaCl, 5 mM βME, 0.75 ml/min, calibrated with Bio-Rad gel filtration standards; both purified
[1] = molecular target: KlAbd1-(117-426) (Kluyveromyces lactis) (UniProt Q6CKI0)
[2] = molecular target: KlAbd1-(138-426) (Kluyveromyces lactis) (UniProt Q6CKI0)
[3] = molecular target: Kluyveromyces lactis cap methyltransferase Abd1, full length (aa 1-426) (Kluyveromyces lactis) (UniProt Q6CKI0)
[4] = molecular target: Saccharomyces cerevisiae cap methyltransferase Abd1, wild type, His10 fusion (aa 1-436) (Saccharomyces cerevisiae) (UniProt P32783)
[5] = molecular target: ScAbd1-(120-436) (Saccharomyces cerevisiae) (UniProt P32783)
[6] = molecular target: ScAbd1-(141-436) (Saccharomyces cerevisiae) (UniProt P32783)
[7] = molecular target: ScAbd1-E124K-K163R-K311R-F387Y-Y416F, His10 fusion (Saccharomyces cerevisiae) (UniProt P32783)
[8] = molecular target: ScAbd1-L59P-Y416C, His10 fusion (Saccharomyces cerevisiae) (UniProt P32783)
[9] = molecular target: ScAbd1-Y416A, His10 fusion (Saccharomyces cerevisiae) (UniProt P32783)
[10] = molecular target: ScAbd1-Y416N-R422H, His10 fusion (Saccharomyces cerevisiae) (UniProt P32783)

For “KlAbd1-(117-426) (from UniProt Q6CKI0 117-426) (domain or fragment)”, the binding [1] was “no binding”.
For “KlAbd1-(138-426) (from UniProt Q6CKI0 138-426) (domain or fragment)”, the binding [2] was “no binding”.
“Kluyveromyces lactis cap methyltransferase Abd1, full length (aa 1-426) (from UniProt Q6CKI0 1-426) (enzyme)” was tested, and the binding [3] was “no binding”.
In the case of “Saccharomyces cerevisiae cap methyltransferase Abd1, wild type, His10 fusion (aa 1-436) (from UniProt P32783 1-436) (enzyme)”, the binding [4] is reported as “no binding”.
In the case of “ScAbd1-(120-436) (from UniProt P32783 120-436) (domain or fragment)”, the binding [5] is reported as “no binding”.
“ScAbd1-(141-436) (from UniProt P32783 141-436) (domain or fragment)” was tested, and the binding [6] was “no binding”.
For “ScAbd1-E124K-K163R-K311R-F387Y-Y416F, His10 fusion (from UniProt P32783 1-436) (enzyme)”, the binding [7] was “no binding”.
With “ScAbd1-L59P-Y416C, His10 fusion (from UniProt P32783 1-436) (enzyme)” the binding [8] was “no binding”.
“ScAbd1-Y416A, His10 fusion (from UniProt P32783 1-436) (enzyme)” was tested, and the binding [9] was “no binding”.
In the case of “ScAbd1-Y416N-R422H, His10 fusion (from UniProt P32783 1-436) (enzyme)”, the binding [10] is reported as “no binding”.
